Measured values as given in PMC11784234.
These are yes or no findings as the source states them, for the method shown. In cells and extracts the contact can be indirect. Some results given as binding are weak or reduced against the parent protein; the word gives no strength.

Target: human STAT2, HA-tagged (HA-STAT2-Myc) (human), P52630
Assay: co-IP; HEK293T cells transfected; lysate incubated with anti-HA Affinity Gel at 4°C overnight, immunoblot
Settings: remark: other sources report otherwise

B1: IRF9, Q00978 1-393 (protein)
chain: MASGRARCTRKLRNWVVEQVESGQFPGVCWDDTAKTMFRIPWKHAGKQDFREDQDAAFFKAWAIFKGKYKEGDTGGPAVWKTRLRCALNKSSEFKEVPERGRMDVAEPYKVYQLLPPGIVSGQPGTQKVPSKRQHSSVSSERKEEEDAMQNCTLSPSVLQDSLNNEEEGASGGAVHSDIGSSSSSSSPEPQEVTDTTEAPFQGDQRSLEFLLPPEPDYSLLLTFIYNGRVVGEAQVQSLDCRLVAEPSGSESSMEQVLFPKPGPLEPTQRLLSQLERGILVASNPRGLFVQRLCPIPISWNAPQAPPGPGPHLLPSNECVELFRTAYFCRDLVRYFQGLGPPPKFQVTLNFWEESHGSSHTPQNLITVKMEQAFARYLLEQTPEQQAAILSLV
  binding: binds
